Test results: US20250346934A1
Results are given in words; binding and its absence hold for the method and conditions named. Some binding calls cover weakened binding; strength is not graded here.

Amino acid sequences for entries named in this document (tags omitted). A change or cut given only in a name is not applied to a line headed by its entry.
UniProt A8A750: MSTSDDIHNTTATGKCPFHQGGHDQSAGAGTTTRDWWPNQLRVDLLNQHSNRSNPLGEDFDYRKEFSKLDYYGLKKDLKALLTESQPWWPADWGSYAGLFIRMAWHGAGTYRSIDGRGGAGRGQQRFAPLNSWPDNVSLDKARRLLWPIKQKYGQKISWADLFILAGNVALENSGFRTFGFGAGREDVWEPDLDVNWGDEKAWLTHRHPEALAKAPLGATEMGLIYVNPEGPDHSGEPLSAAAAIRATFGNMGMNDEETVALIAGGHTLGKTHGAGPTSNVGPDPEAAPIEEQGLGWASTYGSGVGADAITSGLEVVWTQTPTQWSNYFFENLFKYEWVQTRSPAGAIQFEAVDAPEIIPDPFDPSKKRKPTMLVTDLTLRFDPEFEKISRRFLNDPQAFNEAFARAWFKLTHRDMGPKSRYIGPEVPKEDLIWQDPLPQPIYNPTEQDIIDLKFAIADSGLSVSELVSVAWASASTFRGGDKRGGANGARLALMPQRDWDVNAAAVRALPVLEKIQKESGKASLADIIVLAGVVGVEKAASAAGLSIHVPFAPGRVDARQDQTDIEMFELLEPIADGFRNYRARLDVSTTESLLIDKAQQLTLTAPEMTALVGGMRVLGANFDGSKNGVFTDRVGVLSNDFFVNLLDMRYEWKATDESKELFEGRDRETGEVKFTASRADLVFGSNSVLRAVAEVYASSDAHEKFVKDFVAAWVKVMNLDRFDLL

Experiments:
Experiment in all cases: non-reducing SDS-PAGE and dynamic light scattering of a 1:2 molar mixture
[1] = molecular target: KatG-RIDD (GGGGS)6 (Escherichia coli (W3110)) (UniProt A8A750)
[2] = molecular target: KatG-RIDD (GGGGS)4 (Escherichia coli (W3110)) (UniProt A8A750)
[3] = molecular target: KatG-RIDD (GGGGS)5 (Escherichia coli (W3110)) (UniProt A8A750)

Measured: binding

B1: LGOX-RIAD (GGGGS)4 (enzyme)
chain: ASGDSRGADFDRCLAVARALLVLDSDDRPLVPRYQSVLQKGLPAQRRTRPKNVLVIGAGPAGLVAAWLLKRAGHRVTVLEANGNRAGGRVKTFRSGGHERAEQPFADPRQYAEAGAMRIPGSHPLVMELIDQFELKKRRFHYVDVDSEGRPANRTWIHVNGIRVRRADYARAPRRVNRSFGVPRAHWDTPAAAILRSVLDPVRDEFSRVGRDGKRVDKPLPERLQGWARVVQRFGDWSMFRFLTEHAGLDERTIDLIGTLENLTSRLPLSFIHSFIGSSLISPDTPFYELEGGTAVLPDALLERVRKDVRFDRRVTRIQYHHPDRPSPDVEQVRSKGPHVWVDTVSEGRDGPVVREQFTADVAVVTVPFSGLRHVQIAPPLSYGKRRAVCELHYDSATKVLLEFSRRWWEFDEADWKRELRAVDPGLYDAYRTGRAAADGSLLGAHPSVPAGHITAGQRTHYAANRAVARDQPEAVDVVGGGSVSDNANRFMFHPSHPVPGSAGGVVLASYSWADDALRWDSLDDEARYPHALCGLQQVYGQRIEVFYTGAGRTQSWLRDPYAYGEASVLLPGQHTELLSAIPVAEGPLHFAGDHTSVKPAWIEGAVESAVRAALEIHTAGGGGSGGGGSGGGGSGGGGSLEQYANQLADQIIKEATEGC
binds: all assays above
